# Assay results published in patent US9957271B2, “Substituted bicyclic aza-heterocycles and analogues as sirtuin modulators” (GlaxoSmithKline, LLC, priority 2012, dated 2018).
# At least one structure is not confirmed: it was looked up by name or label, or the drawing left a doubt.
# Biological target: T1, SIRT1 (Homo sapiens, UniProt Q96EB6)
# T1 sequence (Q96EB6 1-747): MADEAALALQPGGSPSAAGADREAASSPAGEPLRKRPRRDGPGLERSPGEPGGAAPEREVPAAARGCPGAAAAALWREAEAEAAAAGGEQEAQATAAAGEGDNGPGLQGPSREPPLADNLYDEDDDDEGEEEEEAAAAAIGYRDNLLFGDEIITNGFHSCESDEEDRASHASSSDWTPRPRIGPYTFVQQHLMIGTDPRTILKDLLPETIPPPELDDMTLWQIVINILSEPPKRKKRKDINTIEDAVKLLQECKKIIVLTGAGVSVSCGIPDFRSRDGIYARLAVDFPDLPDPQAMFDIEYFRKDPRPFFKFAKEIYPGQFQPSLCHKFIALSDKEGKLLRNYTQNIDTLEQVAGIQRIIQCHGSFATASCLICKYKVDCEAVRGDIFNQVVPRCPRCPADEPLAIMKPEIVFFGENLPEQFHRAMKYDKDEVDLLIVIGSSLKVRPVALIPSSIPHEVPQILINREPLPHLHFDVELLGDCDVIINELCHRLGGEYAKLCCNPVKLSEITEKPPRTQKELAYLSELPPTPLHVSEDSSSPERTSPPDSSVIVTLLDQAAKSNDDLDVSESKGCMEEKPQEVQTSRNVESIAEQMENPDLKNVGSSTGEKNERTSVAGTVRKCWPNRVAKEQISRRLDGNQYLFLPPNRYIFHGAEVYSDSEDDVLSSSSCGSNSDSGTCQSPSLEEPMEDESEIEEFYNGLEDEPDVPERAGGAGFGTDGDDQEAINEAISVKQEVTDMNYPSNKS
# Experiment: Trp mass spectrometry assay of SIRT1 activity
# Type: biochemical
# Conditions: Trp assay; concentration giving 150% activation of SIRT1
# Text: Mass spectrometry based assays were used to identify modulators of SIRT1 activity. The TAMRA based assay utilized a peptide having 20 amino acid residues as follows: Ac-EE-K(biotin)-[…](Ac)NleSTEG-K(5TMR)-EE-NH2 (SEQ ID NO: 1), wherein K(Ac) is an acetylated lysine residue and Nle is a norleucine. The peptide was labeled with the fluorophore 5TMR (excitation 540 nm/emission 580 nm) at the C-terminus. The sequence of the peptide substrate was based on p53 with several modifications. In addition, the methionine residue naturally present in the sequence was replaced with the norleucine because the methionine may be susceptible to oxidation during synthesis and purification. The Trp based assay utilized a peptide having an amino acid residues as follows: Ac-R-H-K-K(Ac)-W-NH2 (SEQ ID NO: 2).
# The Trp mass spectrometry assay was conducted as follows. 0.5 μM peptide substrate and 120 μM βNAD^+ were incubated with 10 nM SIRT1 for 25 minutes at 25° C. in a reaction buffer (50 mM HEPES pH 7.5, […], 1 mM DTT, 0.05% BSA). The SIRT1 protein was obtained by cloning the SirT1 gene into a T7-promoter containing vector, which was then expressed in BL21(DE3) bacterial cells and purified as described in further detail below. Test compound was added at varying concentrations to this reaction mixture and the resulting reactions were monitored. After the 25 minute incubation with SIRT1, 10 μL of 10% formic acid was added to stop the reaction. The resulting reactions were sealed and frozen for later mass spec analysis. The relative SIRT1 activity was then determined by measuring the amount of O-acetyl-ADP-ribose (OAADPR) formed (or, alternatively, the amount of deacetylated Trp peptide generated) by the NAD-dependent sirtuin deacetylation reaction in the presence of varying concentrations of the test compound versus control reactions lacking the test compound. The degree to which the test agent activated deacetylation by SIRT1 was expressed as EC1.5 (i.e., the concentration of compound required to increase SIRT1 activity by 50% over the control lacking test compound), and Percent Maximum Activation (i.e., the maximum activity relative to control (100%) obtained for the test compound).
# A control for inhibition of sirtuin activity was conducted by adding 1 μL of 500 mM nicotinamide as a negative control at the start of the reaction (e.g., permits determination of maximum sirtuin inhibition). A control for activation of sirtuin activity was conducted using 10 nM of sirtuin protein, with 1 μL of DMSO in place of compound, to determine the amount of deacetylation of the substrate at a given time point within the linear range of the assay. This time point was the same as that used for test compounds and, within the linear range, the endpoint represents a change in velocity.
# For the above assay, SIRT1 protein was expressed and purified as follows. The SirT1 gene was cloned into a T7-promoter containing vector and transformed into BL21(DE3). The protein was expressed by induction with 1 mM IPTG as an N-terminal His-tag fusion protein at 18° C. overnight and harvested at 30,000×g. Cells were lysed with lysozyme in lysis buffer (50 mM Tris-HCl, 2 mM Tris[2-carboxyethyl]phosphine (TCEP), 10 μM ZnCl2, 200 mM NaCl) and further treated with sonication for […] for complete lysis. The protein was purified over a Ni-NTA column (Amersham) and fractions containing pure protein were pooled, concentrated and run over a sizing column (Sephadex S200 26/60 global). The peak containing soluble protein was collected and run on an Ion-exchange column (MonoQ). Gradient elution (200 mM-500 mM NaCl) yielded pure protein. This protein was concentrated and dialyzed against dialysis buffer (20 mM Tris-HCl, 2 mM TCEP) overnight. The protein was aliquoted and frozen at −80° C. until further use.
row,SMILES,Trp EC1.5 (μM)
1,CC1CCN(c2ccc3ncc(C(=O)Nc4ccccn4)n3n2)C1 (stereo not drawn) [Compound 975],B (EC1.5 1-25 μM)
2,CC1(C)CCN(c2ccc3ncc(C(=O)Nc4ccc(F)cn4)n3n2)C1 [Compound 954],B (EC1.5 1-25 μM)
3,CN1CCN(c2ccc3ncc(C(=O)Nc4ccncn4)n3n2)CC1 [Compound 971],C (EC1.5>25 μM)
4,C[C@@H]1CN(c2ccc3ncc(C(=O)Nc4cccnn4)n3n2)C[C@H](C)O1 [Compound 996],B (EC1.5 1-25 μM)
5,O=C(Nc1ccncn1)c1cnc2ccc(N3CCOCC3)nn12 [Compound 961],C (EC1.5>25 μM)
6,O=C(Nc1cncc(F)c1)c1cnc2ccc(N3CC[C@H](O)C3)nn12 [Compound 985],B (EC1.5 1-25 μM)
7,C[C@@H]1CN(c2ccc3ncc(C(=O)Nc4cccnc4)n3n2)C[C@H](C)O1 [Compound 995],B (EC1.5 1-25 μM)
8,O=C(Nc1cccnc1)c1cnc2ccc(N3CCC(C(F)(F)F)C3)nn12 (stereo not drawn) [Compound 958],A (EC1.5<1 μM)
9,C[C@@H]1CN(c2ccc3ncc(C(=O)Nc4cncc(F)c4)n3n2)C[C@H](C)O1 [Compound 997],B (EC1.5 1-25 μM)

# Same assay, conditions: concentration of test compound that results in 150% activation of SIRT1; Trp peptide substrate
row,SMILES,Trp EC1.5 (μM)
1,O=C(Nc1cccnc1)c1cnn2ccc(N3CCC(C(F)(F)F)CC3)nc12 [Compound 1066],A (EC1.5<1 μM)
2,Cc1nn2ccc(N3CCC[C@@H]3C(F)(F)F)nc2c1C(=O)Nc1cnccn1 [Compound 1084],B (EC1.5 1-25 μM)
3,O=C(Nc1cccnc1)c1cnc2ccc(N3CCC[C@@H]3C(F)(F)F)nn12 [Compound 1019],B (EC1.5 1-25 μM)
4,COc1nccc(NC(=O)c2cnn3ccc(N4CCCC4C)nc23)n1 (stereo not drawn) [Compound 1043],B (EC1.5 1-25 μM)
5,Cc1nn2ccc(N3CCC[C@H]3C(F)(F)F)nc2c1C(=O)Nc1cccnn1 [Compound 1034],A (EC1.5<1 μM)
6,Cc1nn2ccc(N3CCC[C@@H]3C(F)(F)F)nc2c1C(=O)Nc1cccnn1 [Compound 1075],B (EC1.5 1-25 μM)
7,O=C(Nc1cncc(F)c1)c1cnn2ccc(N3CCC(C(F)(F)F)C3)nc12 (stereo not drawn) [Compound 1013],A (EC1.5<1 μM)
8,CN1CCc2ncc(NC(=O)c3cnc4ccc(N5CCCC5C(F)(F)F)nn34)cc2C1 (stereo not drawn) [Compound 1094],B (EC1.5 1-25 μM)
9,C[C@H]1CCCN1c1ccc2ncc(C(=O)Nc3ccc(F)cn3)n2n1 [Compound 1052],B (EC1.5 1-25 μM)
10,C[C@@H]1CN(c2ccc3ncc(C(=O)Nc4cccnn4)n3n2)CCO1 [Compound 1003],B (EC1.5 1-25 μM)
11,C[C@H]1CCCN1c1ccc2ncc(C(=O)Nc3ccncn3)n2n1 [Compound 1057],C (EC1.5>25 μM)
12,O=C(Nc1ccccn1)c1cnn2ccc(N3CCC[C@@H]3C(F)(F)F)nc12 [Compound 1090],C (EC1.5>25 μM)
13,O=C(Nc1cnccn1)c1cnn2ccc(N3CCC[C@H]3C(F)(F)F)nc12 [Compound 1031],A (EC1.5<1 μM)
14,Cc1cncc(NC(=O)c2c(C)nn3ccc(N4CCC[C@H]4C(F)(F)F)nc23)c1 [Compound 1036],A (EC1.5<1 μM)
15,Cc1cncc(NC(=O)c2c(C)nn3ccc(N4CCC[C@@H]4C(F)(F)F)nc23)c1 [Compound 1072],A (EC1.5<1 μM)
16,Cc1nc2ccc(N3CCC[C@H]3C(F)(F)F)nn2c1C(=O)Nc1cccnn1 [Compound 1018],A (EC1.5<1 μM)
17,Cc1nn2ccc(N3CCC[C@@H]3C(F)(F)F)nc2c1C(=O)Nc1cccnc1 [Compound 1071],A (EC1.5<1 μM)
18,O=C(Nc1cnccn1)c1cnn2ccc(N3CCC(C(F)(F)F)CC3)nc12 [Compound 1061],B (EC1.5 1-25 μM)
19,O=C(Nc1cccnc1)c1cnn2ccc(N3CCCC3C(F)(F)F)nc12 (stereo not drawn) [Compound 1000],A (EC1.5<1 μM)
20,CC1CCCN1c1ccn2ncc(C(=O)Nc3cnccn3)c2n1 (stereo not drawn) [Compound 1041],B (EC1.5 1-25 μM)
21,O=C(Nc1cccc(-c2cnco2)n1)c1cnc2ccc(N3CCCC3C(F)(F)F)nn12 (stereo not drawn) [Compound 1099],A (EC1.5<1 μM)
